Data as given in patent US12600740B2, “Fluorinated N-acetyl glucosamine analogs and xylose derivatives” (UTI Limited Partnership, priority 2018, dated 2026).
Some results were stated once for a whole list of compounds, not compound by compound. For some assays here: At least one compound was matched to its structure with a doubt left.

What was measured:
splenocytes = assay: Splenocyte thymidine proliferation assay (anti-CD3/anti-CD28); type: cell-based, mouse; conditions: 25 μM, 48 hours, [3H]-thymidine, relative to control activated splenocytes
Experimental: It was assessed whether the glucosamine analogs have immunomodulatory properties on splenocytes isolated in culture. T cells within the splenocyte pool were polyclonally activated with anti-CD3 and anti-CD28 antibodies in the presence of compounds for 48 hours, and proliferation was determined by the uptake of tritiated thymidine and expressed as counts per minute. The relative change in proliferation of treated versus control splenocytes was taken in order to rank the compounds across multiple independent experiments (FIG. 8a).
The spleens were isolated from 8-10-week-old female C57BL/6 mice and homogenized. The cells were isolated by Ficoll gradient and spun for 30 min at 1,800 r.p.m. The cell suspension was removed and the cells were washed once with PBS. The cell pellet was subsequently re-suspended in Roswell Park Memorial Institute media containing 10% fetal bovine serum, 1% penicillin/streptomycin, 1% sodium pyruvate and 1% L-glutamine. Trypan blue exclusion was used to count live cells, and the cells were plated at 2.5×10^5 cells per well in a round-bottom 96-well plate and activated with 1,000 ng/ml plate-bound anti-CD3 and 1,000 ng/ml anti-CD28 suspended in media to preferentially activate T lymphocytes. Compounds were added at final concentrations of 25 μM. […] The results were read by liquid scintillation counts.

[1] = test system: CSPG production by astrocytes; assay: Western blot of astrocyte conditioned medium, MAB2030 (chondroitin sulfate GAG stubs); type: cell-based, mouse; conditions: astrocyte conditioned media, 50 μM, 48 hours
Text: Astrocytes are major producers of CSPGs following injury in the CNS [Jones, L. L., Margolis, R. U. & Tuszynski, M. H. The chondroitin sulfate proteoglycans neurocan, brevican, phosphacan, and versican are differentially regulated following spinal cord injury. Experimental Neurology 182, 399-411 (2003); Tang, X., Davies, J. E. & Davies, S. J. Changes in distribution, cell associations, and protein expression levels of NG2, neurocan, phosphacan, brevican, versican V2, and tenascin-C during acute to chronic maturation of spinal cord scar tissue. […] The Journal of neuroscience: the official journal of the Society for Neuroscience 20, 2427-2438 (2000); McKeon, R. J., Jurynec, M. J. & Buck, C. R. The chondroitin sulfate proteoglycans neurocan and phosphacan are expressed by reactive astrocytes in the chronic CNS glial scar. The Journal of neuroscience: the official journal of the Society for Neuroscience 19, 10778-10788 (1999); Haas, C. A., Rauch, U., Thon, N., Merten, T. & Deller, T. Entorhinal cortex lesion in adult rats induces the expression of the neuronal chondroitin sulfate proteoglycan neurocan in reactive astrocytes. […]
Astrocytes were plated in uncoated 6-well plates (3 replicate wells per treatment) at 1×10^6 cells/well in mixed glial media, and incubated at 5% CO2 and 37° C. […] Total protein was quantified using a Bradford assay. […]

| Compound | reduction of splenocyte proliferation (splenocytes) | reduction of chondroitin sulfate GAG stubs (MAB2030 band density) [1] [%] |
| --- | --- | --- |
| CC(=O)NC1C(O)OC(COC(C)=O)[C@@H](F)[C@@H]1OC(C)=O (mixture of isomers) [Compound 10] | at least 50% | – |
| CC(=O)NC1C(OC(C)=O)OC(COC(C)=O)[C@@H](F)C1OC(C)=O (some centres unmarked) [Compound 3, reference compound] | – | ≥ 25 |
